{"source": "patent US5164296A", "about": "“Assay methods involving ouabain” (priority 1990, dated 1992)", "origin": "cited, not measured here", "conditions": "ouabain administered to a subject; cited from earlier work", "note": "At least one read-out could not be matched to a standard name with certainty.", "data": [{"smiles": "C[C@@H]1O[C@@H](O[C@H]2C[C@@H](O)[C@]3(CO)[C@H]4[C@H](O)C[C@]5(C)[C@@H](C6=CC(=O)OC6)CC[C@]5(O)[C@@H]4CC[C@]3(O)C2)[C@H](O)[C@H](O)[C@H]1O", "note": "[ouabain]", "values": [{"measurement": "removal by excretory function of the kidney, of the administered amount", "value": "50-80%"}]}]}
